Experimental data as given in patent publication US6270799A, “Medicament formulation with a controlled release of an active agent” (Bayer Aktiengesellscahft, priority 1997, dated 2001).
Structures can show the parent of a compound that is named as a salt. Where two headings read alike, the source gives them in different places.

Assays:
[1] = animal experiments
[2] = humans; data found by Staib and Fuhr; cited from earlier work

## O=C(O)c1cn(C2CC2)c2cc(N3CCNCC3)c(F)cc2c1=O [cyprofloxacin-hydrochloride, ciprofloxacin-hydrochloride]
[1]
  absorption from the colon: only absorbed to a very small degree from the colon
[2]
  absorption from the colon: only absorbed to a very small degree from the colon
